Measured values as given in doi:10.1101/846493.
Read-outs that look alike come from different tables or passages of the source. No constants are given. Whether binding was seen depends on the method and setting. Binding seen in cells or lysates may run through a third protein. Some results given as binding are weak or reduced against the parent protein; the word gives no strength. For part of these data: Sequences can lack the tags named with a protein. One block for each molecule: values may come before it.

Sequences of proteins named here, by UniProt entry; tags and fusion partners are left off.
UniProt O15105, whole entry: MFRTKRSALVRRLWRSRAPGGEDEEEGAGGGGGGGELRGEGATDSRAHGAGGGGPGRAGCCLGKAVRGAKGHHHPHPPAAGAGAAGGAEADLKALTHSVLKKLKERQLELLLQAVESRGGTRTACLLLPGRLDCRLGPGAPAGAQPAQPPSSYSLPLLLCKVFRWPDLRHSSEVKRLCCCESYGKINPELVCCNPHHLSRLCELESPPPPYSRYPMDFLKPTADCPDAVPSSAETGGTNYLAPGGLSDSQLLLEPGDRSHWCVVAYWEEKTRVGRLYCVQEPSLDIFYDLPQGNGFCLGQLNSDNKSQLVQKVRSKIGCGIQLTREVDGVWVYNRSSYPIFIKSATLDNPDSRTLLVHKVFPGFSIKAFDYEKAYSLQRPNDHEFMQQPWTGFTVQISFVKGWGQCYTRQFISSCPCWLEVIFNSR
UniProt O35253, whole entry: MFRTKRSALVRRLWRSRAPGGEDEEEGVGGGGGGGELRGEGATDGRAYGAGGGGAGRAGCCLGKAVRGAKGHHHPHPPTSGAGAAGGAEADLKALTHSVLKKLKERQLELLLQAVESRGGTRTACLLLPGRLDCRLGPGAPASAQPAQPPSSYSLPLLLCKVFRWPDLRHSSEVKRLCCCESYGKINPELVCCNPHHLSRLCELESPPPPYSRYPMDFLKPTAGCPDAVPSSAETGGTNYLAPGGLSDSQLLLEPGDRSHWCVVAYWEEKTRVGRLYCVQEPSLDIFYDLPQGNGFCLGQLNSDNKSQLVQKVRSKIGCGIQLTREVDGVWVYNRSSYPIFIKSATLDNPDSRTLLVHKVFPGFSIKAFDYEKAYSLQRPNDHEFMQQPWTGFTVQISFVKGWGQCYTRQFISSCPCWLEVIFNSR
UniProt Q9HAU4, whole entry: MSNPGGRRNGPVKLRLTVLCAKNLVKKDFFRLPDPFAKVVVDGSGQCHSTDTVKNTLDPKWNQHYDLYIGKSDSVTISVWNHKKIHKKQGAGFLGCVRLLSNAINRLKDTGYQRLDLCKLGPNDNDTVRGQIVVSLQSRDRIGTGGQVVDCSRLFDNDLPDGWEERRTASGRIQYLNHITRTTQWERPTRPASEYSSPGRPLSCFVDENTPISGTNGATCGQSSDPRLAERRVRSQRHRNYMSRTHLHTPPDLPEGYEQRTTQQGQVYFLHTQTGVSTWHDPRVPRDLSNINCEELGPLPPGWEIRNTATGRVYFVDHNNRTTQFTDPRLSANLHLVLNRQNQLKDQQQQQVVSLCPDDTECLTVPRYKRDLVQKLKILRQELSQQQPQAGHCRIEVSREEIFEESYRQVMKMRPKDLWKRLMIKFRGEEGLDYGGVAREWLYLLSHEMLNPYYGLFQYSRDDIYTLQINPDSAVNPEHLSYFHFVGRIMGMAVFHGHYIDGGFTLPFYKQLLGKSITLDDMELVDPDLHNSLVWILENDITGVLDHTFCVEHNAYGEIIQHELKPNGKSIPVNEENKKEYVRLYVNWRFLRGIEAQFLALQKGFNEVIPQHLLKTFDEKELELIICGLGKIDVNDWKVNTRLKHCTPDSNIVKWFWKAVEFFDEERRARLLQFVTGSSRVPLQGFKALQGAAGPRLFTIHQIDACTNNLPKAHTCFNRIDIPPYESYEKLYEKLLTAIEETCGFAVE

Experiments:
Experiment in all cases: co-IP
[1] = target: SMAD7-HA (UniProt O15105)
[2] = target: SMAD7, endogenous in mouse liver (mouse (endogenous in Prom1+/+ liver)) (UniProt O35253)
[3] = target: SMAD7-HA (UniProt O15105); remark: listed apart in the source

binding [1]: binds
Molecule: Myc-SMURF2 (from UniProt Q9HAU4 1-748) (enzyme)

binding [2]: binds
B1: Prominin-1 (PROM1), endogenous in mouse liver (protein, UniProt O54990 20-867)
chain: EGQPAFHNTPGAMNYELPTTKYETQDTFNAGIVGPLYKMVHIFLSVVQPNDFPLDLIKKLIQNKKFDISVDSKEPEIIVLALKIALYEIGVLICAILGLLFIILMPLVGCFFCMCRCCNKCGGEMHQRQKQNAPCRRKCLGLSLLVICLLMSLGIIYGFVANQQTRTRIKGTQKLAKSNFRDFQTLLTETPKQIDYVVEQYTNTKNKAFSDLDGIGSVLGGRIKDQLKPKVTPVLEEIKAMATAIKQTKDALQNMSSSLKSLQDAATQLNTNLSSVRNSIENSLSSSDCTSDPASKICDSIRPSLSSLGSSLNSSQLPSVDRELNTVTEVDKTDLESLVKRGYTTIDEIPNTIQNQTVDVIKDVKNTLDSISSNIKDMSQSIPIEDMLLQVSHYLNNSNRYLNQELPKLEEYDSYWWLGGLIVCFLLTLIVTFFFLGLLCGVFGYDKHATPTRRGCVSNTGGIFLMAGVGFGFLFCWILMILVVLTFVVGANVEKLLCEPYENKKLLQVLDTPYLLKEQWQFYLSGMLFNNPDINMTFEQVYRDCKRGRGIYAAFQLENVVNVSDHFNIDQISENINTELENLNVNIDSIELLDNTGRKSLEDFAHSGIDTIDYSTYLKETEKSPTEVNLLTFASTLEAKANQLPEGKPKQAFLLDVQNIRAIHQHLLPPVQQSLNTLRQSVWTLQQTSNKLPEKVKKILASLDSVQHFLTNNVSLIVIGETKKFGKTILGYFEHYLHWVFYAITEKMTSCKPMATAMDSAVNGILCGYVADPLNLFWFGIGKATVLLLPAVIIAIKLAKYYRRMDSEDVYDDVETVPMKNLEIGSNGYHKDHLYGVHNPVMTSPSRY

binding [3]: binds
B2: PROM1-FLAG (protein, UniProt O43490 20-865)
chain: GGQPSSTDAPKAWNYELPATNYETQDSHKAGPIGILFELVHIFLYVVQPRDFPEDTLRKFLQKAYESKIDYDKPETVILGLKIVYYEAGIILCCVLGLLFIILMPLVGYFFCMCRCCNKCGGEMHQRQKENGPFLRKCFAISLLVICIIISIGIFYGFVANHQVRTRIKRSRKLADSNFKDLRTLLNETPEQIKYILAQYNTTKDKAFTDLNSINSVLGGGILDRLRPNIIPVLDEIKSMATAIKETKEALENMNSTLKSLHQQSTQLSSSLTSVKTSLRSSLNDPLCLVHPSSETCNSIRLSLSQLNSNPELRQLPPVDAELDNVNNVLRTDLDGLVQQGYQSLNDIPDRVQRQTTTVVAGIKRVLNSIGSDIDNVTQRLPIQDILSAFSVYVNNTESYIHRNLPTLEEYDSYWWLGGLVICSLLTLIVIFYYLGLLCGVCGYDRHATPTTRGCVSNTGGVFLMVGVGLSFLFCWILMIIVVLTFVFGANVEKLICEPYTSKELFRVLDTPYLLNEDWEYYLSGKLFNKSKMKLTFEQVYSDCKKNRGTYGTLHLQNSFNISEHLNINEHTGSISSELESLKVNLNIFLLGAAGRKNLQDFAACGIDRMNYDSYLAQTGKSPAGVNLLSFAYDLEAKANSLPPGNLRNSLKRDAQTIKTIHQQRVLPIEQSLSTLYQSVKILQRTGNGLLERVTRILASLDFAQNFITNNTSSVIIEETKKYGRTIIGYFEHYLQWIEFSISEKVASCKPVATALDTAVDVFLCSYIIDPLNLFWFGIGKATVFLLPALIFAVKLAKYYRRMDSEDVYDDVETIPMKNMENGNNGYHKDHVYGIHNPVMTSPSQH
